Data as given in PMC13254257.
Results are given in words; binding and its absence hold for the method and conditions named. Binding seen in cells or lysates may run through a third protein. Sequences can lack the tags named with a protein.

Molecular target: T1, TMEM65-V5 (transmembrane protein 65 with a V5 tag, endogenous knock-in) (mouse (endogenous in brain)), Q4VAE3
T1 chain: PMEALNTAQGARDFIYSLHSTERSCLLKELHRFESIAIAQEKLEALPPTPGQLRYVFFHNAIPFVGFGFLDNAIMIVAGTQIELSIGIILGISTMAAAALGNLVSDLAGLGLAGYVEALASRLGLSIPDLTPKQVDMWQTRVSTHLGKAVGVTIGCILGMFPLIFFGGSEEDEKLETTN
Assay: co-IP; anti-V5 antibody coupled to Dynabeads; brain lysates of homozygous (Tmem65+V5/+V5) or heterozygous (Tmem65+V5/+) TMEM65-V5 mice in 25 mM Tris-HCl pH 7.4, 150 mM NaCl, 1 mM EDTA, 1% NP-40, 1 mM PMSF, 5% glycerol; 4 °C, 30 min; elution with 0.1 M glycine pH 3.0; Western blot
Conditions: remark: other sources report otherwise

B1: NCLX (SLC8B1/SLC24A6), Q925Q3 27-585 (protein)
chain: TGDPSTKAHGHIQFSAGSVNQTAMADCRAVCGLNTSDRCDFVRRNPDCRSEAGYLDYLEGIFCYFPPNLLPLAITLYVFWLLYLFLILGVTAAKFFCPNLSAISTNLKLSHNVAGVTFLAFGNGAPDIFSALVAFSDPRTAGLAIGALFGAGVLVTTVVAGGITILHPFMAASRPFLRDIAFYMVAVFLTFTALYLGRITLTWALGYLGLYVFYVVTVIICTWVYQRQRSRSLVHSISETPELLSESEEDQMSSNTNSYDYGDEYRPLLLGRETTVQILIQALNPLDYRKWRTQSISWRVLKVVKLPVEFLLLLTVPVVDPDKDDRNWKRPLNCLQLVISPLVLVLTLQSGVYGIYEIGGLLPVWAVVVIVGTALASVTFFATSNREPPRLHWLFAFLGFLTSALWINAAATEVVNILRSLGVIFRLSNTVLGLTLLAWGNSIGDAFSDFTLARQGYPRMAFSACFGGIIFNILVGVGLGCLLQIIRNHVVEVKLEPDGLLVWVLASALGLSLIFSLVSVPLQCFQLSKAYGLCLLLFYICFLVVVLLTEFGVIHLKKA
binding: no binding
